According to PubChem BioAssay AID2685 (National Center for Advancing Translational Sciences (NCATS), 2010):
The other results are listed elsewhere or left out. These are further read-outs of the screen, such as a control signal, another cell line or another target. No call is given for them. Compounds called inactive in the main read-out are mostly missing here. Words in brackets tell the shape of the fitted curve; partial curves, single points and poor fits give uncertain potencies. Where a SMILES comes first, the peptide text is derived from it. The star is where a group is joined. Boc = CC(C)(C)OC(=O)*

Assay: qHTS Assay for Lipid Storage Modulators in Drosophila S3 Cells;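 on cell number change: cells counted by Cell Tracker Red CMTPX staining in the red channel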
Settings: BODIPY lipid droplet fluorescence, 18-24 h; for cell number change: measured here: cell count max response, cells fed with added oleic acid
In short: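 Laser-scanning cytometry quantifies lipid droplet accumulation (500–530 nm total intensity; droplet/cell object ratio) in oleic acid-fed (400 uM added) Drosophila S3 cells treated with a concentration series. 20 uM Triacsin C defined 100% inhibition.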

[1] = measured here: cell number channel AC50, cells fed with added oleic acid
[2] = measured here: lipid fluorescence (Fed channel) AC50, cells fed with added oleic acid

Row | Structure (SMILES) | AC50 [1] | AC50 [2] | cell number change [%]
1 | N=c1sccn1CC(=O)N1N=C(c2ccc(Cl)cc2)CC1c1ccco1 (configuration not stated) | 0.00411 µM [rising, full curve, poor fit] | – | –
2 | COc1ccc(Cl)cc1N(CC(=O)N1CCC(C)CC1)S(C)(=O)=O | – | 1.64 µM [falling, partial curve] | –
3 | Nc1nonc1/C(=N/O)N1CCCC1 | 0.0231 µM [falling, full curve, poor fit] | 4.11 µM [falling, single point] | -15.4
4 | CC(O)c1nc(C(C)O)n(CC(=O)c2ccccc2)n1 (configuration not stated) | – | – | -19.3
5 | C=CCOC(=O)C1=C[C@H](c2coc3ccccc3c2=O)[C@@H](CCCO)[C@H](OCC)O1 | – | 0.103 µM [rising, full curve, poor fit] | 27.9
6 | O=C(CN1CCCC1c1cccs1)N1CCN(S(=O)(=O)c2ccccc2)CC1 (configuration not stated) | 29.1 µM [rising, single point] | – | 46
7 | CCN(C(=O)COC(=O)c1cccnc1SC)C1CCCCC1 | – | 29.1 µM [rising, single point] | -4.76
8 | Nc1nonc1C(=O)N/N=C/c1cc2c(cc1Br)OCO2 | – | 13 µM [rising, partial curve] | 20.5
9 | Cc1cc([N+](=O)[O-])nn1CCCC(=O)NCc1ccc(F)cc1 | 6.51 µM [rising, single point] | – | -8.14
10 | CCCN1C2CCCC1CC(NC(=S)Nc1cccc(C)c1C)C2 (configuration not stated) | – | 0.731 µM [falling, full curve, poor fit] | -11.3
11 | Cc1ccc(C)c(OCCn2cc(/C=C(/C#N)C(=O)NCC3CCCO3)c3ccccc32)c1 (configuration not stated) | 0.103 µM [rising, partial curve, poor fit] | 29.1 µM [falling, single point] | 29.7
12 | Cn1c(=O)[nH]c(=O)c2c1nc(N1CCN(Cc3ccccc3)CC1)n2CCCc1ccccc1 | – | 2.31 µM [rising, partial curve] | 20.5
13 | CCOc1ccc(CN(C)C(=O)[C@H](Cc2ccccc2)NC(=O)OCc2ccccc2)cc1OC | – | 7.31 µM [falling, partial curve] | –
14 | CN(CCc1ccccc1)C1CCCN(C(=O)Cn2cccn2)C1 (configuration not stated) | – | 29.1 µM [falling, single point] | -2.55
15 | CCOC(=O)C1CCN(c2ccc([N+](=O)[O-])cc2S(=O)(=O)N2CCOCC2)CC1 | 0.00411 µM [rising, full curve, poor fit] | – | 21.3
16 | O=C(c1ccc(Cl)c([N+](=O)[O-])c1)N1CCN(S(=O)(=O)c2ccc(Cl)cc2)CC1 | – | – | -24.6
17 | Cc1nc(C/C(=N\N)c2ccc(O)cc2O)cs1 | 23.1 µM [rising, single point] | – | 96.9
18 | COc1cccc(CN2CCNC(=O)C2CC(=O)NCc2cn3ccc(C)cc3n2)c1OC (configuration not stated) | 0.0731 µM [falling, full curve, poor fit] | – | -1.16

Row | Structure (SMILES) | AC50 [1] | AC50 [2] | cell number change [%]
19 | O=C(NCCCN1CCCC1=O)c1cc(-c2ccc3c(c2)OCO3)nc2ccccc12 | 4.11 µM [falling, single point] | 6.51 µM [falling, single point] | 128
20 | O=C(NC(=S)Nc1ccc(S(=O)(=O)N2CCCCC2)cc1)c1ccc(Cl)cc1 | – | 0.651 µM [rising, full curve] | -11.3
21 | COc1ccc(C(=O)NC(=S)Nc2ccccc2F)cc1 | – | 0.116 µM [falling, full curve, poor fit] | -6.75
22 | NCCN1CCN(S(=O)(=O)c2ccc([N+](=O)[O-])cc2)C=C1c1ccc(Cl)cc1 | – | – | -4.46
23 | CC1CC(=O)C2=C(C1)Nc1ccccc1N(C(=O)COc1ccccc1)C2c1ccco1 (configuration not stated) | 18.4 µM [rising, single point] | – | 33.2
24 | O=c1[nH]c(SCc2ccccc2Cl)nc2c1cnn2-c1ccccc1 | 14.6 µM [falling, single point] | 29.1 µM [falling, single point] | -42.9
25 | Cc1ccc(C(=O)CN2C(=O)C(=O)N(Cc3ccccc3)C2=O)cc1 | – | 7.31 µM [falling, partial curve, poor fit] | -14.3
26 | COc1cccc(OC)c1C(=O)Nc1ccc(S(=O)(=O)Nc2cc(C)nc(C)n2)cc1 | 0.92 µM [falling, partial curve] | 6.51 µM [falling, partial curve] | –
27 | O=C(CSc1n[nH]c(-c2ccncc2)n1)Nc1ccc(Cl)c(Cl)c1 | – | 0.291 µM [rising, full curve] | 2.1
28 | COC(=O)CCCNC(=O)c1ccc2oc(CCCc3ccccc3)nc2c1 | – | 29.1 µM [falling, single point] | -2.47
29 | O=C(CCN1C(=O)c2ccc([N+](=O)[O-])cc2C1=O)Nc1ccccc1C(=O)O | – | 32.6 µM [rising, single point] | 2.56
30 | CC(C)(C)OC(=O)N1CCCC1C(=O)NC(Cc1ccccc1)C(=O)O (stereo not drawn) (Boc-Pro-Phe-OH; configuration not given here) | 0.231 µM [falling, full curve, poor fit] | 1.3 µM [falling, partial curve] | -25.8
31 | O=C(N/N=C\c1ccc(Cl)s1)c1cccs1 | 3.66 µM [rising, full curve] | 18.4 µM [rising, partial curve] | 32.9
32 | CCOC(=O)CSc1ncc(-c2ccccc2)nn1 | 32.6 µM [falling, single point] | 0.092 µM [falling, full curve, poor fit] | -46.7
33 | Cc1ccc(CSC2=NCCN2S(=O)(=O)c2ccc(F)cc2)cc1 | – | 18.4 µM [falling, partial curve] | -20.5
34 | Fc1ccc(OCc2nn[nH]n2)c(F)c1 | – | 5.8 µM [rising, single point] | -9.97
35 | O=C(COC(=O)/C=C/c1ccc(Cl)cc1)Nc1ccc2c(c1)OCCO2 | – | – | 8.61
36 | CCCC(=O)Nc1nc(-c2ccccc2)ns1 | – | 1.16 µM [rising, full curve] | 0.115

Rewritten in CSV form: entries from further up
Row,Structure (SMILES),AC50 [1],AC50 [2],cell number change [%]
19,O=C(NCCCN1CCCC1=O)c1cc(-c2ccc3c(c2)OCO3)nc2ccccc12,"4.11 µM [falling, single point]","6.51 µM [falling, single point]",128
21,COc1ccc(C(=O)NC(=S)Nc2ccccc2F)cc1,–,"0.116 µM [falling, full curve, poor fit]",-6.75
24,O=c1[nH]c(SCc2ccccc2Cl)nc2c1cnn2-c1ccccc1,"14.6 µM [falling, single point]","29.1 µM [falling, single point]",-42.9
26,COc1cccc(OC)c1C(=O)Nc1ccc(S(=O)(=O)Nc2cc(C)nc(C)n2)cc1,"0.92 µM [falling, partial curve]","6.51 µM [falling, partial curve]",–
27,O=C(CSc1n[nH]c(-c2ccncc2)n1)Nc1ccc(Cl)c(Cl)c1,–,"0.291 µM [rising, full curve]",2.1
28,COC(=O)CCCNC(=O)c1ccc2oc(CCCc3ccccc3)nc2c1,–,"29.1 µM [falling, single point]",-2.47
30,CC(C)(C)OC(=O)N1CCCC1C(=O)NC(Cc1ccccc1)C(=O)O (stereo not drawn) (Boc-Pro-Phe-OH; configuration not given here),"0.231 µM [falling, full curve, poor fit]","1.3 µM [falling, partial curve]",-25.8
31,O=C(N/N=C\c1ccc(Cl)s1)c1cccs1,"3.66 µM [rising, full curve]","18.4 µM [rising, partial curve]",32.9
33,Cc1ccc(CSC2=NCCN2S(=O)(=O)c2ccc(F)cc2)cc1,–,"18.4 µM [falling, partial curve]",-20.5
35,O=C(COC(=O)/C=C/c1ccc(Cl)cc1)Nc1ccc2c(c1)OCCO2,–,–,8.61
